The supplement of paper PMC10331698
± gives the standard deviation of the averaged measurements. Most entries show no effect beyond the scatter of the controls.

Columns and labels:
Assay in all cases: level (log10 ratio to DMSO vehicle control); higher = higher biomarker level / cell amount than vehicle control
[1] = compound: CN(C(=O)C(F)(F)C(F)(F)C(F)(F)F)[Si](C)(C)C [N-Methyl-N-trimethylsilylheptafluorobutyramide]; settings: 2200 nM; in DMSO
Description: (§1)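 BioMAP Diversity Plus panel of 12 human primary cell co-culture systems (3C, 4H, LPS, SAg, BT, BF4T, BE3C, CASM3C, HDF3CGF, KF3CT, MyoF, Mphg). Compounds were added 1 h before stimulation and left for 24 h (MyoF 48 h; BT 72 h for soluble read-outs or 6 d for IgG). Biomarkers were read by ELISA, cytotoxicity by SRB, PBMC viability and proliferation by Alamar Blue. Each well value was divided by the mean of 8 DMSO control wells on the same plate and log10 transformed; duplicate blinded samples were tested at 4 concentrations.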

Perfluoropentanoic acid = compound: O=C(O)C(F)(F)C(F)(F)C(F)(F)C(F)(F)F [Perfluoropentanoic acid]; settings: in DMSO
Description: as §1

[2] = compound: OCCC(F)(F)C(F)(F)C(F)(F)C(F)(F)C(F)(F)C(F)(F)F [6:2 Fluorotelomer alcohol]; settings: 2200 nM; in DMSO
Description: as §1

1H,1H-Heptafluorobutanol = compound: OCC(F)(F)C(F)(F)C(F)(F)F [1H,1H-Heptafluorobutanol]; settings: 2200 nM; in DMSO
Description: as §1

[3] = compound: FC(F)(F)C(F)(F)C(F)(F)C(F)(F)C(F)(F)C(F)(F)CC1CO1 [3-(Perfluorohexyl)-1,2-epoxypropane]; settings: 2200 nM; in DMSO
Description: as §1

[4] = compound: O=C(O)C(F)(F)C(F)(F)C(F)(F)OC(F)(F)F [Perfluoro(4-methoxybutanoic) acid]; settings: 2200 nM; in DMSO
Description: as §1

Heptafluorobutyramide = compound: NC(=O)C(F)(F)C(F)(F)C(F)(F)F [Heptafluorobutyramide]; settings: 2200 nM; in DMSO
Description: as §1

1-(Perfluorohexyl)octane = compound: CCCCCCCCC(F)(F)C(F)(F)C(F)(F)C(F)(F)C(F)(F)C(F)(F)F [1-(Perfluorohexyl)octane]; settings: in DMSO
Description: as §1

Perfluoroheptanoic acid = compound: O=C(O)C(F)(F)C(F)(F)C(F)(F)C(F)(F)C(F)(F)C(F)(F)F [Perfluoroheptanoic acid]; settings: in DMSO
Description: as §1

[5] = compound: CC(C)(C)C(=O)CC(=O)C(F)(F)C(F)(F)C(F)(F)F [(Heptafluorobutanoyl)pivaloylmethane]; settings: 2200 nM; in DMSO
Description: as §1

[6] = compound: NCC(F)(F)C(F)(F)C(F)(F)C(F)(F)C(F)(F)C(F)(F)C(F)(F)F [1H,1H-Perfluorooctylamine]; settings: 2200 nM; in DMSO
Description: as §1

[7] = compound: Cc1ccc(S(=O)(=O)OCC(F)(F)C(F)(F)C(F)(F)C(F)(F)C(F)(F)C(F)F)cc1 [1H,1H,7H-Perfluoroheptyl 4-methylbenzenesulfonate]; settings: 2200 nM; in DMSO
Description: as §1

[8] = compound: CCN(CCO)S(=O)(=O)C(F)(F)C(F)(F)C(F)(F)C(F)(F)C(F)(F)C(F)(F)C(F)(F)C(F)(F)F [N-Ethyl-N-(2-hydroxyethyl)perfluorooctanesulfonamide]; settings: in DMSO
Description: as §1

[9] = compound: O=S(=O)(O)CCC(F)(F)C(F)(F)C(F)(F)C(F)(F)C(F)(F)C(F)(F)C(F)(F)C(F)(F)F [8:2 Fluorotelomer sulfonic acid]; settings: in DMSO
Description: as §1

Octafluoroadipic acid = compound: O=C(O)C(F)(F)C(F)(F)C(F)(F)C(F)(F)C(=O)O [Octafluoroadipic acid]; settings: 2200 nM; in DMSO
Description: as §1

[10] = compound: O=C(O)C(F)(F)C(F)(F)C(F)(F)C(F)(F)C(F)(F)C(F)(F)C(F)(F)C(F)(F)C(F)(F)C(F)F [11-H-Perfluoroundecanoic acid]; settings: 2200 nM; in DMSO
Description: as §1

| Test System | level (log10) [1] | level (log10) (Perfluoropentanoic acid; 2200 nM) | level (log10) (Perfluoropentanoic acid; 6700 nM) | level (log10) (Perfluoropentanoic acid; 20000 nM) | level (log10) (Perfluoropentanoic acid; 60000 nM) | level (log10) [2] | level (log10) (1H,1H-Heptafluorobutanol) | level (log10) [3] | level (log10) [4] | level (log10) (Heptafluorobutyramide) | level (log10) (1-(Perfluorohexyl)octane; 740 nM) | level (log10) (1-(Perfluorohexyl)octane; 2200 nM) | level (log10) (Perfluoroheptanoic acid; 2200 nM) | level (log10) (Perfluoroheptanoic acid; 6700 nM) | level (log10) (Perfluoroheptanoic acid; 20000 nM) | level (log10) (Perfluoroheptanoic acid; 60000 nM) | level (log10) [5] | level (log10) [6] | level (log10) [7] | level (log10) ([8]; 2200 nM) | level (log10) ([8]; 6700 nM) | level (log10) ([8]; 20000 nM) | level (log10) ([9]; 2200 nM) | level (log10) ([9]; 6700 nM) | level (log10) ([9]; 20000 nM) | level (log10) ([9]; 60000 nM) | level (log10) (Octafluoroadipic acid) | level (log10) [10] |
| --- | --- | --- | --- | --- | --- | --- | --- | --- | --- | --- | --- | --- | --- | --- | --- | --- | --- | --- | --- | --- | --- | --- | --- | --- | --- | --- | --- | --- |
| LPS:CXCL8/IL-8 | 0.0055 ± 0.0064 | 0.016 ± 0.045 | -0.0075 ± 0.00071 | -0.0095 ± 0.022 | 0.0245 ± 0.052 | 0.039 ± 0.045 | 0.016 | -0.011 ± 0.0085 | 0.0155 ± 0.083 | 0.014 ± 0.072 | 0.019 ± 0.047 | 0.0115 ± 0.025 | 0.0295 ± 0.0021 | 0.0085 ± 0.033 | 0.027 ± 0.03 | 0.105 ± 0.059 | -0.008 ± 0.0042 | -0.028 ± 0.028 | 0.022 ± 0.031 | 0.069 ± 0.0071 | 0.039 ± 0.0042 | -0.003 ± 0.0028 | 0.048 ± 0.041 | 0.01 ± 0.11 | 0.0485 ± 0.012 | -0.053 ± 0.17 | 0.012 ± 0.014 | -0.0185 ± 0.011 |
| MyoF:Collagen I | 0.0135 ± 0.025 | -0.0095 ± 0.0035 | -0.0065 ± 0.0092 | -0.008 ± 0.0085 | 0.0065 ± 0.015 | 0.0105 ± 0.033 | -0.0075 ± 0.018 | 0.011 ± 0.031 | -0.015 ± 0.0042 | 0.0035 ± 0.011 | 0.0085 ± 0.012 | 0.0155 ± 0.013 | 0.0125 ± 0.028 | -0.0225 ± 0.011 | -0.006 | 0.0055 ± 0.043 | -0.014 ± 0.013 | 0.0035 ± 0.016 | -0.0025 ± 0.018 | 0.0225 ± 0.0064 | 0.042 ± 0.0028 | -0.155 ± 0.029 | 0.0085 ± 0.023 | 0.004 ± 0.0042 | -0.0265 ± 0.026 | -0.024 ± 0.0071 | -0.0075 ± 0.018 | -0.022 ± 0.024 |
| LPS:CCL2/MCP-1 | 0.011 ± 0.0042 | 0.003 ± 0.037 | 0.0065 ± 0.0064 | -0.0065 ± 0.00071 | 0.0225 ± 0.039 | -0.003 ± 0.048 | -0.0045 ± 0.036 | -0.0025 ± 0.032 | 0.0365 ± 0.013 | 0.026 ± 0.0042 | 0.015 ± 0.042 | 0.0135 ± 0.012 | 0.009 ± 0.013 | -0.0025 ± 0.021 | -0.005 ± 0.0028 | 0.032 ± 0.011 | -0.018 ± 0.041 | -0.0095 ± 0.025 | 0.0065 ± 0.049 | 0.006 ± 0.0071 | -0.017 ± 0.025 | -0.0535 ± 0.012 | 0.018 ± 0.028 | 0.0135 ± 0.023 | 0.016 ± 0.0028 | -0.055 ± 0.045 | 0.0195 ± 0.066 | -0.007 ± 0.025 |
| HDF3CGF:Collagen III | 0.005 ± 0.028 | 0.0175 ± 0.063 | 0.005 ± 0.014 | 0.01 ± 0.017 | 0.033 ± 0.034 | 0.0175 ± 0.021 | -0.0245 ± 0.093 | 0.001 ± 0.014 | -0.005 ± 0.025 | -0.0285 ± 0.032 | -0.02 ± 0.048 | 0.005 ± 0.0057 | -0.026 ± 0.057 | -0.021 ± 0.011 | -0.0385 ± 0.033 | -0.013 ± 0.016 | -0.0605 ± 0.16 | -0.01 ± 0.033 | -0.0275 ± 0.043 | 0.002 ± 0.069 | -0.0465 ± 0.05 | -0.142 ± 0.044 | 0.012 ± 0.035 | 0.05 ± 0.014 | 0.0975 ± 0.0092 | 0.0145 ± 0.12 | 0.005 ± 0.02 | -0.061 ± 0.054 |
| CASM3C:CXCL9/MIG | 0.0005 ± 0.044 | -0.0035 ± 0.069 | 0.001 ± 0.062 | -0.0015 ± 0.036 | 0.043 ± 0.017 | 0.0285 ± 0.083 | 0.0175 ± 0.005 | 0.028 ± 0.076 | 0.0055 ± 0.013 | 0.004 ± 0.017 | 0.0175 ± 0.035 | 0.0015 ± 0.013 | 0.042 ± 0.042 | 0.006 ± 0.023 | 0.015 ± 0.016 | 0.054 ± 0.051 | 0.0015 ± 0.0078 | 0.003 ± 0.054 | -0.001 ± 0.035 | -0.0045 ± 0.033 | -0.0675 ± 0.005 | -0.166 ± 0.073 | 0.009 ± 0.05 | -0.03 ± 0.02 | -0.032 ± 0.0071 | 0 ± 0.021 | 0.0045 ± 0.03 | 0.004 ± 0.0014 |
